Test results as given in article PMC10382480.
Results are given in words; binding and its absence hold for the method and conditions named. Binding seen in cells or lysates may run through a third protein. Some entries that bind do so weakly or less than the wild type.

Amino acid sequences for entries named in this document (tags omitted).
UniProt P25490: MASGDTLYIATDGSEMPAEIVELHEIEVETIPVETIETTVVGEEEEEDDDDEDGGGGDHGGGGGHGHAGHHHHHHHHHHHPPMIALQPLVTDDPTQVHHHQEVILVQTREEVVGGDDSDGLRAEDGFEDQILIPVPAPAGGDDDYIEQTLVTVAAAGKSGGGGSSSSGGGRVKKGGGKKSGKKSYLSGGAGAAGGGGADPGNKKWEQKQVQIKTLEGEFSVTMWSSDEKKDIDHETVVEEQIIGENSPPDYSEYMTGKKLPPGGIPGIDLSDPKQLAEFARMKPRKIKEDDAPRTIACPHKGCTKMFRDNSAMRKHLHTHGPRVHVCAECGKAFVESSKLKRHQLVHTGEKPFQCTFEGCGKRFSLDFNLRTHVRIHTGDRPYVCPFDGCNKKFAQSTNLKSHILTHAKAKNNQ
UniProt Q92769: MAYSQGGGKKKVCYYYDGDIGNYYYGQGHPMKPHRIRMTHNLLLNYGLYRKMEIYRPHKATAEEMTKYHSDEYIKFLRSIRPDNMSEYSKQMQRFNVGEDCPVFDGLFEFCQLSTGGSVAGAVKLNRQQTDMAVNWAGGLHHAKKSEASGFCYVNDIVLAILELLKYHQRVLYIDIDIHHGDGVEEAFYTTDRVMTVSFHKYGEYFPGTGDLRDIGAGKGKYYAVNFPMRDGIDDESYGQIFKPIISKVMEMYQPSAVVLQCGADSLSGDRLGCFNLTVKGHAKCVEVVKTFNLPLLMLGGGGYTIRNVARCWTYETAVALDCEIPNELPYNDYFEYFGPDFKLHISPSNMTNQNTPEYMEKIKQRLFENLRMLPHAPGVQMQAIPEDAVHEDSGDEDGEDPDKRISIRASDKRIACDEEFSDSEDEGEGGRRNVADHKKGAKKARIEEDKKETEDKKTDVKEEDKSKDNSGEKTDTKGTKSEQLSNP

Legend:
[1] = target: Yin Yang 1 (YY1), endogenous in HK-2 cells (human (endogenous in HK-2)) (UniProt P25490); experiment: co-IP; endogenous proteins; total lysate of HK-2 cells treated with TNF-α for 48 h; anti-YY1 with protein A/G-agarose beads, overnight; immunoblot with anti-YY1 or anti-HDAC2
Flag-tagged YY1 = Flag-tagged YY1 (UniProt P25490); experiment: co-IP; HEK293T cells co-transfected with Flag-tagged YY1 and HA-tagged HDAC2 plasmids; immunoprecipitates analysed by immunoblot

Row | binding [1] | binding (Flag-tagged YY1) | Substance
1 | binds | – | histone deacetylase 2 (HDAC2), endogenous in HK-2 cells (from UniProt Q92769 1-488)
2 | – | binds | HA-tagged HDAC2 (from UniProt Q92769 1-488)
